# Results from article PMC11130243.
# Protein sequences, listed by entry. Tags and fused reporters are not part of them. Residues count along the entry.
# UniProt P42224: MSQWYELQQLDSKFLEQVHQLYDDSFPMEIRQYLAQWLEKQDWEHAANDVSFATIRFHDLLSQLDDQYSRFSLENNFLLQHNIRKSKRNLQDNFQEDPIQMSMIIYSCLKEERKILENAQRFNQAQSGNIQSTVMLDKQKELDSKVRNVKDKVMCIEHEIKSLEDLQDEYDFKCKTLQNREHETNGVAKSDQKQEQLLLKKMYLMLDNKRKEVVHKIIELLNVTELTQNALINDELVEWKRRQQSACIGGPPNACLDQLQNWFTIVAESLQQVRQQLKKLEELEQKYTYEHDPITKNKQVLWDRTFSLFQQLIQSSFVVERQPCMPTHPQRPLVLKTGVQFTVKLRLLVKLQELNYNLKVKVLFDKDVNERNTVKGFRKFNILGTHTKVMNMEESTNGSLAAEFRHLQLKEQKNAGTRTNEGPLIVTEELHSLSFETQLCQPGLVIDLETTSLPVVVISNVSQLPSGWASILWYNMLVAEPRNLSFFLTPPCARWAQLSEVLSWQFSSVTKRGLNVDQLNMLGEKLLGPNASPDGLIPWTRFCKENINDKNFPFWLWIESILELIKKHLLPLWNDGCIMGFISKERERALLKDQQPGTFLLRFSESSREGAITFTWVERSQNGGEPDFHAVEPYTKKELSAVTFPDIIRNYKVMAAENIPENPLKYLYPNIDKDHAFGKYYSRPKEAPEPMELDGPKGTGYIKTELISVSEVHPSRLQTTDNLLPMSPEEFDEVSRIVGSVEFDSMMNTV
# UniProt P52630: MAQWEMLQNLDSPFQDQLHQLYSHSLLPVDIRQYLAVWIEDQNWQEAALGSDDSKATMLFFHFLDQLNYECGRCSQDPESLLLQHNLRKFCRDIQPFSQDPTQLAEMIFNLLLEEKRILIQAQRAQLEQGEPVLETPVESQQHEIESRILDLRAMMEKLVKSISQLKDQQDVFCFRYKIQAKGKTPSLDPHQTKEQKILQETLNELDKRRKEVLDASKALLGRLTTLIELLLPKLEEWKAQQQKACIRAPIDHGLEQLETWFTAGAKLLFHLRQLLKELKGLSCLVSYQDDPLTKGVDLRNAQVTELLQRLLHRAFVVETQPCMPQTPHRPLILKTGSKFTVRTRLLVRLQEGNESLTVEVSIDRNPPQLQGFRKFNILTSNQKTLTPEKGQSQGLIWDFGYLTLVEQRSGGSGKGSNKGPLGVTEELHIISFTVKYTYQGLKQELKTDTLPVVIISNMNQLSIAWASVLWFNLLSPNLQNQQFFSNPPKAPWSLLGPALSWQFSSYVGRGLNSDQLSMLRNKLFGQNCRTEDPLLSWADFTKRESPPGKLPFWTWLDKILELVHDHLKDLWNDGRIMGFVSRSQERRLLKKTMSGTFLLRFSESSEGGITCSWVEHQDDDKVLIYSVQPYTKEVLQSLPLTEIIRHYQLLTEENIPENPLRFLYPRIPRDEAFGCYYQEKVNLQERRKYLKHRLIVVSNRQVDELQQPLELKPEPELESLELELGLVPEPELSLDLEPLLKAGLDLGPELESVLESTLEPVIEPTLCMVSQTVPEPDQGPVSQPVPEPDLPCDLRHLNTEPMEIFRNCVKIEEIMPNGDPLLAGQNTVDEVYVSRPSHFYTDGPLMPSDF
# UniProt Q15717: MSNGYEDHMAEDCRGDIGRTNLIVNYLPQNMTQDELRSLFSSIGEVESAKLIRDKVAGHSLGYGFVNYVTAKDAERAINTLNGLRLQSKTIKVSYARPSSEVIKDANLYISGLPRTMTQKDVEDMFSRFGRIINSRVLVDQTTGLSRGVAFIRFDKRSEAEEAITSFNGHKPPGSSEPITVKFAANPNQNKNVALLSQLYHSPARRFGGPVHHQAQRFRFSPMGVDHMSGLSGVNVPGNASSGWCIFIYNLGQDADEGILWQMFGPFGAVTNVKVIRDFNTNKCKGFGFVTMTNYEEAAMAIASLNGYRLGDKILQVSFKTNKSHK
# UniProt O60884: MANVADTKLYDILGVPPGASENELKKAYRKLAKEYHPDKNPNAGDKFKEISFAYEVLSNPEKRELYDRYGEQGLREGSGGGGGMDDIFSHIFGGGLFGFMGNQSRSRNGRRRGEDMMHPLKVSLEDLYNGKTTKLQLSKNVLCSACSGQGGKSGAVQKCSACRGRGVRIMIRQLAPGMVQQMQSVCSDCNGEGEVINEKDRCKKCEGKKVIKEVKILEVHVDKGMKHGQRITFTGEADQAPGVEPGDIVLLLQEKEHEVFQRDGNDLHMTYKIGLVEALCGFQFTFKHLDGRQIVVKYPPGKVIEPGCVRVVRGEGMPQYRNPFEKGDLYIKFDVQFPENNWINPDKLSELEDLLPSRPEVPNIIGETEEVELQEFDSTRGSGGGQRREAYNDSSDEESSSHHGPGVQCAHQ
# UniProt P40189, residues 23-918: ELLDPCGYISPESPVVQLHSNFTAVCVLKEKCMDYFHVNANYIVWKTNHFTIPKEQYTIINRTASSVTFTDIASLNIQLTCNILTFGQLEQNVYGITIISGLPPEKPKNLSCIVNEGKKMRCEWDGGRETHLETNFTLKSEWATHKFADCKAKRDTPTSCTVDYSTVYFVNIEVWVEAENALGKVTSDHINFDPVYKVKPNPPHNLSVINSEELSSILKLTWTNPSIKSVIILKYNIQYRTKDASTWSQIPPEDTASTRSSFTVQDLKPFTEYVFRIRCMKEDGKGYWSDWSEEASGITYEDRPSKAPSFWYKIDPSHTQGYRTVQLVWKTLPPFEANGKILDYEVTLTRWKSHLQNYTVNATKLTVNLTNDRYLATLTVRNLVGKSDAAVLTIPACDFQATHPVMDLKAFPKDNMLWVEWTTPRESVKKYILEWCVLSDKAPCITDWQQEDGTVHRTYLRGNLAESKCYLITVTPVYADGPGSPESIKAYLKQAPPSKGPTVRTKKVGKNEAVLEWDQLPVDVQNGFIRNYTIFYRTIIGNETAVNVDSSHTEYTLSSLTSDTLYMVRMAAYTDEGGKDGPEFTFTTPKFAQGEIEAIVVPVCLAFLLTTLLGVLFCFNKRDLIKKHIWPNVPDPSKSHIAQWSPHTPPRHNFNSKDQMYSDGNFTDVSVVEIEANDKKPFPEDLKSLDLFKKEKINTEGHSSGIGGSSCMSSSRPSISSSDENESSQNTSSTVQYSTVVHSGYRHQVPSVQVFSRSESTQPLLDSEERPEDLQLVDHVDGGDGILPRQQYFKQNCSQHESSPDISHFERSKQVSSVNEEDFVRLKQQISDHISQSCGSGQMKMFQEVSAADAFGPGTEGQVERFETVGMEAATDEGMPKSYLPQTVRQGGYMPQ
# UniProt A5YKK6: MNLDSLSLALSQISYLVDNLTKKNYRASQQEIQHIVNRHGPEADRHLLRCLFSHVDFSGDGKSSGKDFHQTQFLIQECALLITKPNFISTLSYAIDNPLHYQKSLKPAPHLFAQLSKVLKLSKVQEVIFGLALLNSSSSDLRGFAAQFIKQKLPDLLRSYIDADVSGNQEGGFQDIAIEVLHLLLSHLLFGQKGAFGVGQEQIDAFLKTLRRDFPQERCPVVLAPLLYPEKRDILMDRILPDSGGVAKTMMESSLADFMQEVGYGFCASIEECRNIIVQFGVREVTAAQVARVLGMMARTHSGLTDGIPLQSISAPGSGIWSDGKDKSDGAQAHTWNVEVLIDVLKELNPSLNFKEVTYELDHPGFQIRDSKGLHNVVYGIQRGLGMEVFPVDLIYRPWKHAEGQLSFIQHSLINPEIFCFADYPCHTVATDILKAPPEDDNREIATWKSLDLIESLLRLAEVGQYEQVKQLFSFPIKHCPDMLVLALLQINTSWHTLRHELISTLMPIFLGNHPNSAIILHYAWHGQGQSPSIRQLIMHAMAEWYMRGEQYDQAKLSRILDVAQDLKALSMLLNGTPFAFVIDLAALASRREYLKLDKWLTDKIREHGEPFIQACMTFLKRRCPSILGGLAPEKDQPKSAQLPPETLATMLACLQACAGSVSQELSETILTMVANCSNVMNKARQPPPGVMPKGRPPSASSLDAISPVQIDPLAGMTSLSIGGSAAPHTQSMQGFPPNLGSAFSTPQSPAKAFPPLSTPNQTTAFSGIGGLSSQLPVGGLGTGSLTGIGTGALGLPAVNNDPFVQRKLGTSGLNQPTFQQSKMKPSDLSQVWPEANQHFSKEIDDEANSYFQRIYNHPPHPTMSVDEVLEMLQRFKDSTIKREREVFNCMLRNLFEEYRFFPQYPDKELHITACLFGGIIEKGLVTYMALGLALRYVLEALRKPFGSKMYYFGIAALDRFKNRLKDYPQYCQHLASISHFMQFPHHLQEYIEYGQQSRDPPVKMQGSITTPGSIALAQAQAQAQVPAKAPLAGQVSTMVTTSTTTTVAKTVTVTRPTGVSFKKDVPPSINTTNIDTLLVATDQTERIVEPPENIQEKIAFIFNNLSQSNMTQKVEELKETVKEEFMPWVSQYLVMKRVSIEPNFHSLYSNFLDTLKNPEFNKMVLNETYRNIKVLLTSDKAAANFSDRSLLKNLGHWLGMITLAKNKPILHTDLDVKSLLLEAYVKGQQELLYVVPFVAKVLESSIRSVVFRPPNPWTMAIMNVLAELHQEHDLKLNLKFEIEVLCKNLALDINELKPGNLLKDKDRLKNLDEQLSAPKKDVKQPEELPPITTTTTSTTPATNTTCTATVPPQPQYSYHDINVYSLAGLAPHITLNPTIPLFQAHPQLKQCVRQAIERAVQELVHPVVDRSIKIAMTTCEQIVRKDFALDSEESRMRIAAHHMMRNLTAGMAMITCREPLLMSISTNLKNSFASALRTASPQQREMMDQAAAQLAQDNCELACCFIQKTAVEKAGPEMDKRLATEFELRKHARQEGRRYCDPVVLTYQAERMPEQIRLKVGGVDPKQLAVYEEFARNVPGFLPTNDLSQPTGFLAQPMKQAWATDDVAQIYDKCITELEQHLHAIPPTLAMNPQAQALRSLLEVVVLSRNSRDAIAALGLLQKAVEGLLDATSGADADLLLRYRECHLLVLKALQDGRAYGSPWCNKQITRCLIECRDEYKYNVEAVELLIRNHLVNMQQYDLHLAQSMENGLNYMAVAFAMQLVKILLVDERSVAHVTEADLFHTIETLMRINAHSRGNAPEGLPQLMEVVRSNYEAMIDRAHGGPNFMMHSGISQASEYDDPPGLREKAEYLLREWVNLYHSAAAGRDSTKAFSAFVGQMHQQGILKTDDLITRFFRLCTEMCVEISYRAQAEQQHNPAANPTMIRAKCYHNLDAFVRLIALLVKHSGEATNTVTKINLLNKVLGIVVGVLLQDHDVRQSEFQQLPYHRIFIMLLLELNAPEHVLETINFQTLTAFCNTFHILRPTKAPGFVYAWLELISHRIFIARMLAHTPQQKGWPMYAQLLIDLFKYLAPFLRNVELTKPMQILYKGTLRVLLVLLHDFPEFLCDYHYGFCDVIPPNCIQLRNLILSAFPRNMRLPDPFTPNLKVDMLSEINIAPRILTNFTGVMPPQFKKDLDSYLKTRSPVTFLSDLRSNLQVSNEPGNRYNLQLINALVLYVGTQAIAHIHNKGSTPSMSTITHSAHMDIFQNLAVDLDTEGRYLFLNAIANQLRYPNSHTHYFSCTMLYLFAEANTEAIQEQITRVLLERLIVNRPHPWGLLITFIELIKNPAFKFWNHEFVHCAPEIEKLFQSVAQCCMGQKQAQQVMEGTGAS
# UniProt Q9H0B6: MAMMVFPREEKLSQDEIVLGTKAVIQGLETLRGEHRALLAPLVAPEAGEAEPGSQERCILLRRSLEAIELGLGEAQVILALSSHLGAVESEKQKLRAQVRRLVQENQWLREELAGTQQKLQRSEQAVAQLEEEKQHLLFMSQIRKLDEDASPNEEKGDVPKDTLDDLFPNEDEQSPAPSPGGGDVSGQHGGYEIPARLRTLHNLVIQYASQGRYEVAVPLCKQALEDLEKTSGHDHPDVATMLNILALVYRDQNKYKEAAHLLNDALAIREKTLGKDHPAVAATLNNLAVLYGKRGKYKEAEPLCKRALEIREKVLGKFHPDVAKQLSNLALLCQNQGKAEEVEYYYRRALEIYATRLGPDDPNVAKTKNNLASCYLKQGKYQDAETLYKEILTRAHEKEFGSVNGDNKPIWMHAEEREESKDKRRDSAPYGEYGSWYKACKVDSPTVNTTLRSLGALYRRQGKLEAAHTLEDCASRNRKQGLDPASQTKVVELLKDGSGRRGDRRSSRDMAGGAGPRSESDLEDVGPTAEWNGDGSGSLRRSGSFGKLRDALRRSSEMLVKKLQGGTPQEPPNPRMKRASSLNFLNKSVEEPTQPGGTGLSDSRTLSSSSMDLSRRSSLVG
# Columns and labels:
# [1] = target: TurboID-V5-STAT1 (human) (UniProt P42224); assay: proximity labelling; TurboID-tagged bait stably expressed in MRC-5/hTERT; serum-starved 20 h; 1000 IU/mL IFN-α2 for 0, 20, 60 or 120 min; 500 μM biotin for the last 15 min; RIPA lysis; streptavidin magnetic beads; label-free mass spectrometry, SAINTexpress against the similarly localized TurboID-GFP control (FC ≥ 4 stringent or FC ≥ 2 relaxed)
# [2] = target: TurboID-V5-STAT1 (human) (UniProt P42224); assay: proximity labelling; independent small-scale TurboID experiments in MRC-5/hTERT lines performed as the screen; enriched biotinylated proteins (streptavidin pull-down) immunoblotted for the prey
# [3] = target: TurboID-V5-STAT2 (human) (UniProt P52630); assay: as above
# [4] = target: TurboID-V5-JAK1 (stable in MRC-5/hTERT) (human) (UniProt P23458); assay: as above
# [5] = target: TurboID-V5-TYK2 (stable in MRC-5/hTERT) (human) (UniProt P29597); assay: as above
# [6] = target: TurboID-V5-JAK1 (stable in MRC-5/hTERT) (human) (UniProt P23458); assay: proximity labelling; TurboID-tagged bait stably expressed in MRC-5/hTERT; serum-starved 20 h; 1000 IU/mL IFN-α2 for 0, 20, 60 or 120 min; 500 μM biotin for the last 15 min; RIPA lysis; streptavidin magnetic beads; label-free mass spectrometry, SAINTexpress against the similarly localized TurboID-GFP control (FC ≥ 4 stringent or FC ≥ 2 relaxed)
# [7] = target: TurboID-V5-TYK2 (stable in MRC-5/hTERT) (human) (UniProt P29597); assay: as above
# [8] = target: T1, TurboID-V5-IRF9 (human) (UniProt Q00978); assay: proximity labelling; independent small-scale TurboID experiments in MRC-5/hTERT lines performed as the screen; enriched biotinylated proteins (streptavidin pull-down) immunoblotted for the prey
# T1 sequence: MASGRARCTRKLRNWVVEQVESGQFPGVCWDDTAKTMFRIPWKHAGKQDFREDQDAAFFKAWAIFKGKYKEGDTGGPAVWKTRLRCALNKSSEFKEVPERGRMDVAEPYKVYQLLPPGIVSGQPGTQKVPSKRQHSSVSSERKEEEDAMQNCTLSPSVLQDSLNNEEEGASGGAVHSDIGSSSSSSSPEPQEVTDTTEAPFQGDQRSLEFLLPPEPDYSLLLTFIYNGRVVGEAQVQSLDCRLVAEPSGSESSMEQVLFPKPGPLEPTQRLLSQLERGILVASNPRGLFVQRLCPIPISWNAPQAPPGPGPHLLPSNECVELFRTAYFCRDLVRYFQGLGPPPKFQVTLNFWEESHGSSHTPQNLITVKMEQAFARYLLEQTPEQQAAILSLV
# [9] = target: T1, TurboID-V5-IRF9 (human); assay: proximity labelling; TurboID-tagged bait stably expressed in MRC-5/hTERT; serum-starved 20 h; 1000 IU/mL IFN-α2 for 0, 20, 60 or 120 min; 500 μM biotin for the last 15 min; RIPA lysis; streptavidin magnetic beads; label-free mass spectrometry, SAINTexpress against the similarly localized TurboID-GFP control (FC ≥ 4 stringent or FC ≥ 2 relaxed)
# [10] = target: TurboID-V5-STAT2 (human) (UniProt P52630); assay: as above
substance,measurement,setting,value
ELAVL1 (from UniProt Q15717 1-326),binding,[1],binds
DNAJA2 (from UniProt O60884 1-412),binding,[2],binds
same,binding,[3],binds
IL6ST (from UniProt P40189 23-918) (receptor),binding,[4],binds
same,binding,[5],binds
same,binding,[6],binds
same,binding,[7],binds
CNOT1 (from UniProt A5YKK6 1-2376),binding,[8],binds
same,binding,[9],binds
USP9X (from UniProt Q93008 1-2554) (enzyme),binding,[10],binds
KLC2 (from UniProt Q9H0B6 1-622),binding,[3],binds
EP400 (from UniProt Q96L91 1-3159),binding,[1],binds
same,binding,[10],binds

# Results are given in words; binding and its absence hold for the method and conditions named. Binding seen in cells or lysates may run through a third protein. These calls come from enrichment with a bait or labelling near it, and not all partners need be listed. For some of these results: Sequences can lack the tags named with a protein.
